# From the supplement of paper PMC8728848
# This is one part of the list.
# B1: TAL6-6LysM (Trichoderma atroviride) (protein)
# chain: AASKLGVPQPAQRDQVNCQLYAVQPNDNCIDISSKNNITYAQLLSWNPSLSSTCSNLASLNSSSICVSNPKGTFSISSNTVGATDIATTTAPVPSPTLDQTTSRCAKYYQVSDGDDCSHLTAQFAITLKDFIFLNSEVWQNCTNLELGYYYCVEPVGYISTYPGYLPTATTKPFNQTSATSLPYDGDPWARFSSNSSVIPIANGTRVDCYSYVYVKNLTENLFADCWNMASMYEITREELVLWNPSLGNDGSSGSNLSGAEASQVASSIAIPTTAPSSITTNLYTYPCTVAANISYCVALVSSTGALPTNTAPPGPHASGEISNCTAWFAPEAYDTCKSILDIFEMSFANFYKMNPSVGPDCSGLAVGTNYCVSTYPNGEDPNDDWDGDDSIPSISPTGIITPTPTQSGMVSNCNKFYDVHSNDGCSAIASSQHVDLSSLYKWNPAIKTDCSGLQASVYVCIGILTTSMSTTSKLPTTTSKPSTTSKPPTGITTPTPTQSGMVKNCNKFYDVHSGDGCSAIASSQKVNLSSFYLWNPAVKTDCSGLQASVFVCIGTLTTSMSTTTSKLPTTTSKPSTTSKPPTGIITPTPTQNGMVKNCNKFYDVHSGDGCSAIASSQKVNLSSFYLWNPAVKTDCSGLQASVFVCVGTATTTTAAGITTPTPTQSGMVSGCNKFYDVHAGDGCSAIASSQKIALSSLYKWNPAVKTDCSGLQASVYICIGVGNAAAARVTGAAASFLEQKLISEEDLNSAVDHHHHHH
# Tests used:
# Assay in all cases: glycan array binding signal (z-score within array); higher = stronger binding
# Settings in all cases: glycan notation: IUPAC condensed, linker removed
# [1] = target: Gal(a1-3)Gal(b1-4)GlcNAc(b1-2)Man
# In short: (§1)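 Columns mapping to the same glycan were averaged after glycan names were converted to IUPAC-condensed notation. The data come from 3228 arrays in the Consortium for Functional Glycomics database, limited to those with an available protein sequence. Binding is reported as a within-array Z-score averaged across arrays of one protein sequence and across linkers.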
# [2] = target: Gal(a1-3)Gal(b1-4)GlcNAc(b1-2)Man(a1-3)[Gal(a1-3)Gal(b1-4)GlcNAc(b1-2)Man(a1-6)]Man(b1-4)GlcNAc(b1-4)GlcNAc
# In short: as §1
# [3] = target: Gal(a1-3)Gal(b1-4)GlcNAc(b1-3)GalNAc
# In short: as §1
# [4] = target: Gal(a1-3)Gal(b1-4)GlcNAc(b1-6)GalNAc
# In short: as §1
# [5] = target: Gal(a1-3)Gal(b1-4)[Fuc(a1-3)]GlcNAc
# In short: as §1
# [6] = target: Gal(a1-3)Gal(b1-4)[Fuc(a1-3)]GlcNAc(b1-2)Man(a1-3)[Gal(a1-3)Gal(b1-4)[Fuc(a1-3)]GlcNAc(b1-2)Man(a1-6)]Man(b1-4)GlcNAc(b1-4)GlcNAc
# In short: as §1
# [7] = target: Gal(a1-3)GalNAc
# In short: as §1
# [8] = target: Gal(a1-3)[Gal(a1-4)]Gal(b1-4)GlcNAc
# In short: as §1
# [9] = target: Gal(a1-4)Gal(b1-3)GlcNAc(b1-2)Man(a1-3)[Gal(a1-4)Gal(b1-3)GlcNAc(b1-2)Man(a1-6)]Man(b1-4)GlcNAc(b1-4)GlcNAc
# In short: as §1
# [10] = target: Gal(a1-4)Gal(b1-4)Glc
# In short: as §1
# [11] = target: Gal(a1-4)Gal(b1-4)GlcNAc
# In short: as §1
# [12] = target: Gal(a1-4)Gal(b1-4)GlcNAc(b1-2)Man(a1-3)[Gal(a1-4)Gal(b1-4)GlcNAc(b1-2)Man(a1-6)]Man(b1-4)GlcNAc(b1-4)GlcNAc
# In short: as §1
# [13] = target: Gal(a1-4)Gal(b1-4)GlcNAc(b1-3)Gal(b1-4)Glc
# In short: as §1
# [14] = target: Gal(a1-4)GlcNAc
# In short: as §1
# [15] = target: Gal(a1-6)Glc
# In short: as §1
# [16] = target: Gal(b1-2)Gal
# In short: as §1
# [17] = target: Gal(b1-3)Gal
# In short: as §1
# [18] = target: Gal(b1-3)Gal(b1-4)GlcNAc
# In short: as §1
# [19] = target: Gal(b1-3)GalNAc
# In short: as §1
# [20] = target: Gal(b1-3)GalNAc(a1-3)[Fuc(a1-2)]Gal(b1-4)Glc
# In short: as §1
# [21] = target: Gal(b1-3)GalNAc(a1-3)[Fuc(a1-2)]Gal(b1-4)GlcNAc
# In short: as §1
# [22] = target: Gal(b1-3)GalNAc(b1-3)Gal
# In short: as §1
# [23] = target: Gal(b1-3)GalNAc(b1-3)Gal(a1-4)Gal(b1-4)Glc
# In short: as §1
# [24] = target: Gal(b1-3)GalNAc(b1-4)Gal(b1-4)Glc
# In short: as §1
# [25] = target: Gal(b1-3)GalNAc(b1-4)[Neu5Ac(a2-3)]Gal(b1-4)Glc
# In short: as §1
# [26] = target: Gal(b1-3)GlcNAc
# In short: as §1
# [27] = target: Gal(b1-3)GlcNAc(a1-3)Gal(b1-4)GlcNAc
# In short: as §1
# [28] = target: Gal(b1-3)GlcNAc(a1-6)Gal(b1-4)GlcNAc
# In short: as §1
# [29] = target: Gal(b1-3)GlcNAc(b1-2)Man
# In short: as §1
# [30] = target: Gal(b1-3)GlcNAc(b1-2)Man(a1-3)[Gal(b1-3)GlcNAc(b1-2)Man(a1-6)]Man(b1-4)GlcNAc(b1-4)GlcNAc
# In short: as §1
binder,measurement,setting,value
B1,glycan array binding signal (z-score),[1],0.538
same,glycan array binding signal (z-score),[2],0.08
same,glycan array binding signal (z-score),[3],-1.02
same,glycan array binding signal (z-score),[4],-0.542
same,glycan array binding signal (z-score),[5],-0.418
same,glycan array binding signal (z-score),[6],-0.687
same,glycan array binding signal (z-score),[7],0.187
same,glycan array binding signal (z-score),[8],0.465
same,glycan array binding signal (z-score),[9],-0.972
same,glycan array binding signal (z-score),[10],2.69
same,glycan array binding signal (z-score),[11],0.405
same,glycan array binding signal (z-score),[12],-0.586
same,glycan array binding signal (z-score),[13],-0.008
same,glycan array binding signal (z-score),[14],-1.6
same,glycan array binding signal (z-score),[15],0.525
same,glycan array binding signal (z-score),[16],-0.67
same,glycan array binding signal (z-score),[17],-0.192
same,glycan array binding signal (z-score),[18],0.459
same,glycan array binding signal (z-score),[19],-0.343
same,glycan array binding signal (z-score),[20],-2.15
same,glycan array binding signal (z-score),[21],-0.299
same,glycan array binding signal (z-score),[22],-1.58
same,glycan array binding signal (z-score),[23],-0.337
same,glycan array binding signal (z-score),[24],-0.503
same,glycan array binding signal (z-score),[25],-0.687
same,glycan array binding signal (z-score),[26],-0.122
same,glycan array binding signal (z-score),[27],0.95
same,glycan array binding signal (z-score),[28],-1.17
same,glycan array binding signal (z-score),[29],3.66
same,glycan array binding signal (z-score),[30],0.699

# Looked up one by one from the list above, 2 records:
binder,measurement,setting,value
B1,glycan array binding signal (z-score),[17],-0.192
same,glycan array binding signal (z-score),[11],0.405
